We go through one substance from publication PMC10496494.

Amino acid sequences for entries named in this document (tags omitted).
UniProt P06748: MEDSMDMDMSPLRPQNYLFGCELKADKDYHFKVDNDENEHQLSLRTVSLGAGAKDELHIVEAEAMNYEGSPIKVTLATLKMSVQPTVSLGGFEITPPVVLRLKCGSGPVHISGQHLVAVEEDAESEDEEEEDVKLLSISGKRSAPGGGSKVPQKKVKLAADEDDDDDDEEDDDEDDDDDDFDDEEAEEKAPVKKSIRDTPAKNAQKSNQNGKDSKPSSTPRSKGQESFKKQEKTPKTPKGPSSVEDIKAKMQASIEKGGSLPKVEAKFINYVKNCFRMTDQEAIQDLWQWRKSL

The assay concerns the target T1, DDX24, endogenous in HUVECs (human (endogenous in HUVECs)) (UniProt Q9GZR7).
T1 sequence: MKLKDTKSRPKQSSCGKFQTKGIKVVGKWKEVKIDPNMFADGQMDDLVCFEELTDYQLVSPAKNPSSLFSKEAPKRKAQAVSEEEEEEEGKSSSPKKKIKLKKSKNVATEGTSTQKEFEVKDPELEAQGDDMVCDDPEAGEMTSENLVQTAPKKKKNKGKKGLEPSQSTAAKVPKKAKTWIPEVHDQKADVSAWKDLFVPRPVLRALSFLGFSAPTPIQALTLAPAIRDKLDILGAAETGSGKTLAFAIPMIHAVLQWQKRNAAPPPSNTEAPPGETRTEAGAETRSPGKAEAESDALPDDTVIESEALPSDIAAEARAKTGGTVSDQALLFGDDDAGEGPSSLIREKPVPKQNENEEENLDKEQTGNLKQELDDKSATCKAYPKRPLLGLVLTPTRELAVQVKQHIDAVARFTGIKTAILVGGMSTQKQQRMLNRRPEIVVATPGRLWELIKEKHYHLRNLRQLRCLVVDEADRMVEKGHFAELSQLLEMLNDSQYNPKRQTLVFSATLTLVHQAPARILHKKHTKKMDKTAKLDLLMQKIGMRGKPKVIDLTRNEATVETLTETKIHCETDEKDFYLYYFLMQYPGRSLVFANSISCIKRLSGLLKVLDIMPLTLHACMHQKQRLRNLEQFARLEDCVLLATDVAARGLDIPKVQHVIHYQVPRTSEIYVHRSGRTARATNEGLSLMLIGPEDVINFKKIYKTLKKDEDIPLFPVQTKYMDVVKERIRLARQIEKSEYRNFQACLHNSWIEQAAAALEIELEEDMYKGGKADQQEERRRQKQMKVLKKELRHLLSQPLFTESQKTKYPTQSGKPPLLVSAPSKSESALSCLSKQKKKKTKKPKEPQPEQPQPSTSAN
The experiment in a line: co-IP; HUVEC lysate precipitated with anti-DDX24 antibody (Bethyl A300-698A) or control rabbit IgG, Pierce Co-Immunoprecipitation Kit; immunoblot of DDX24 and NPM1. (In general: A western blot detects proteins with antibodies after separation by electrophoresis.)

Results are given in words; binding and its absence hold for the method and conditions named. In cells and extracts the contact can be indirect. Some binding calls cover weakened binding; strength is not graded here.

Regarding “NPM1, endogenous in HUVECs (from UniProt P06748 1-294)”, the binding result is recorded as “binds”.
